Experimental data published in the supplement of paper PMC7661543.
± gives the standard deviation of the averaged measurements. The effect of the compound repeats well; differences between the knockouts mostly do not.

Tested on: MDA-MB-231
Assay: relative cell number vs DMSO control (72 h) (% of DMSO); higher = less growth inhibition (more cells)
Experimental: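 QMAP-Seq: a pool of 5 breast cancer cell lines (ZR-75-1, SKBR3, HCC-38, MDA-MB-231, BT-20), each carrying 12 doxycycline-inducible Cas9 sgRNA perturbations (11 knockouts plus non-targeting sgNT), was treated with compounds for 72 h at four 10-fold doses (10 nM-10 uM or 1 nM-1 uM range). Barcodes were amplified and sequenced, and cell number was interpolated from 293T spike-in standard curves. The result is expressed as % of the median of DMSO wells. Two biological replicates.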

CN(C)CC[C@H](CSc1ccccc1)Nc1ccc(S(=O)(=O)NC(=O)c2ccc(N3CCN(Cc4ccccc4-c4ccc(Cl)cc4)CC3)cc2)cc1[N+](=O)[O-] [ABT737]
Conditions	relative cell number
sgRNA knockout: sgATF3, 10 nM	67.8 ± 26
sgRNA knockout: sgATF3, 100 nM	101 ± 2
sgRNA knockout: sgATF3, 1000 nM	95 ± 31
sgRNA knockout: sgATF3, 10000 nM	53.1 ± 9.6
sgRNA knockout: sgATF4, 10 nM	72.4 ± 13
sgRNA knockout: sgATF4, 100 nM	96.7 ± 48
sgRNA knockout: sgATF4, 1000 nM	87.4 ± 21
sgRNA knockout: sgATF4, 10000 nM	49.9 ± 7
sgRNA knockout: sgATF6, 10 nM	88.8 ± 0.84
sgRNA knockout: sgATF6, 100 nM	103 ± 30
sgRNA knockout: sgATF6, 1000 nM	89 ± 16
sgRNA knockout: sgATF6, 10000 nM	55.1 ± 1.5
sgRNA knockout: sgATG7, 10 nM	82.2 ± 2.8
sgRNA knockout: sgATG7, 100 nM	86.2 ± 1.2
sgRNA knockout: sgATG7, 1000 nM	90.7 ± 7.6
sgRNA knockout: sgATG7, 10000 nM	55.4 ± 1.7
sgRNA knockout: sgERN1, 10 nM	111 ± 12
sgRNA knockout: sgERN1, 100 nM	85.2 ± 24
sgRNA knockout: sgERN1, 1000 nM	97.1 ± 8.5
sgRNA knockout: sgERN1, 10000 nM	66.7 ± 1
sgRNA knockout: sgHSF1, 10 nM	91.2 ± 6.5
sgRNA knockout: sgHSF1, 100 nM	88.102 ± 0.083
sgRNA knockout: sgHSF1, 1000 nM	112 ± 2.5
sgRNA knockout: sgHSF1, 10000 nM	54.5 ± 15
sgRNA knockout: sgHSF2, 10 nM	101 ± 4.2
sgRNA knockout: sgHSF2, 100 nM	83 ± 9
sgRNA knockout: sgHSF2, 1000 nM	89.4 ± 1
sgRNA knockout: sgHSF2, 10000 nM	69.7 ± 2.8
sgRNA knockout: sgKEAP1, 10 nM	94.9 ± 11
sgRNA knockout: sgKEAP1, 100 nM	89 ± 25
sgRNA knockout: sgKEAP1, 1000 nM	87.39 ± 0.3
sgRNA knockout: sgKEAP1, 10000 nM	89.9 ± 34
sgRNA knockout: sgNFE2L2, 10 nM	75.3 ± 9.7
sgRNA knockout: sgNFE2L2, 100 nM	82.2 ± 12
sgRNA knockout: sgNFE2L2, 1000 nM	96.9 ± 12
sgRNA knockout: sgNFE2L2, 10000 nM	58.2 ± 26
sgRNA knockout: sgSLC35F2, 10 nM	90 ± 20
sgRNA knockout: sgSLC35F2, 100 nM	85.1 ± 16
sgRNA knockout: sgSLC35F2, 1000 nM	78.1 ± 16
sgRNA knockout: sgSLC35F2, 10000 nM	57.5 ± 29
sgRNA knockout: sgXBP1, 10 nM	87 ± 5.1
sgRNA knockout: sgXBP1, 100 nM	90.3 ± 15
sgRNA knockout: sgXBP1, 1000 nM	88.6 ± 1.3
sgRNA knockout: sgXBP1, 10000 nM	81.5 ± 12

Clc1ccc(C2(c3ccc(-c4cn[nH]c4)cc3)CCNCC2)cc1 [AT7867]
Conditions	relative cell number
sgRNA knockout: sgATF3, 10 nM	61.5 ± 23
sgRNA knockout: sgATF3, 100 nM	86.3 ± 5.2
sgRNA knockout: sgATF3, 1000 nM	59.6 ± 6.8
sgRNA knockout: sgATF3, 10000 nM	17.7 ± 5.9
sgRNA knockout: sgATF4, 10 nM	102 ± 27
sgRNA knockout: sgATF4, 100 nM	111 ± 51
sgRNA knockout: sgATF4, 1000 nM	59.6 ± 25
sgRNA knockout: sgATF4, 10000 nM	18.4 ± 0.82
sgRNA knockout: sgATF6, 10 nM	79.7 ± 8.8
sgRNA knockout: sgATF6, 100 nM	68.2 ± 1.1
sgRNA knockout: sgATF6, 1000 nM	40.2 ± 5.3
sgRNA knockout: sgATF6, 10000 nM	15.2 ± 6.3
sgRNA knockout: sgATG7, 10 nM	88.2 ± 11
sgRNA knockout: sgATG7, 100 nM	90.3 ± 3.6
sgRNA knockout: sgATG7, 1000 nM	44.4 ± 4.6
sgRNA knockout: sgATG7, 10000 nM	17.5 ± 1
sgRNA knockout: sgERN1, 10 nM	83.7 ± 7.6
sgRNA knockout: sgERN1, 100 nM	94.6 ± 10
sgRNA knockout: sgERN1, 1000 nM	54.3 ± 18
sgRNA knockout: sgERN1, 10000 nM	14.7 ± 4.6
sgRNA knockout: sgHSF1, 10 nM	85.7 ± 8.4
sgRNA knockout: sgHSF1, 100 nM	90.77 ± 0.53
sgRNA knockout: sgHSF1, 1000 nM	55.5 ± 16
sgRNA knockout: sgHSF1, 10000 nM	15.1 ± 1.6
sgRNA knockout: sgHSF2, 10 nM	97.7 ± 22
sgRNA knockout: sgHSF2, 100 nM	86.07 ± 0.1
sgRNA knockout: sgHSF2, 1000 nM	46.3 ± 12
sgRNA knockout: sgHSF2, 10000 nM	17.4 ± 0.19
sgRNA knockout: sgKEAP1, 10 nM	186 ± 100
sgRNA knockout: sgKEAP1, 100 nM	94.6 ± 18
sgRNA knockout: sgKEAP1, 1000 nM	59.8 ± 14
sgRNA knockout: sgKEAP1, 10000 nM	16.3 ± 1.1
sgRNA knockout: sgNFE2L2, 10 nM	105 ± 12
sgRNA knockout: sgNFE2L2, 100 nM	77.3 ± 17
sgRNA knockout: sgNFE2L2, 1000 nM	47 ± 1.7
sgRNA knockout: sgNFE2L2, 10000 nM	16.7 ± 1.4
sgRNA knockout: sgSLC35F2, 10 nM	86.6 ± 21
sgRNA knockout: sgSLC35F2, 100 nM	112 ± 1.9
sgRNA knockout: sgSLC35F2, 1000 nM	34 ± 6.2
sgRNA knockout: sgSLC35F2, 10000 nM	17 ± 2.1
sgRNA knockout: sgXBP1, 10 nM	81.2 ± 12
sgRNA knockout: sgXBP1, 100 nM	102 ± 3.7
sgRNA knockout: sgXBP1, 1000 nM	42.1 ± 1.1
sgRNA knockout: sgXBP1, 10000 nM	13.7 ± 3.6
